PubChem BioAssay AID652243, Drosophila RNAi Screening Center, 2013
Screen: 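Knock-downs that decrease or increase androgen receptor reporter signal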 (primary screen). System: Drosophila S2R+ cells. Reagent: long dsRNA against Drosophila genes. Time to read-out: 72 h (48 h, then 24 h hormone). Challenge: synthetic androgen R1881 at 10 nM for 24 h. Measured: 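Firefly light from an androgen-responsive reporter and Renilla control light per well, raw and unnormalised, for each of two replicates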. Reading the numbers: firefly reporter light: higher = more light from androgen-responsive reporter; Renilla control light: higher = more constitutive control signal (cell number, transfection). Call rule: 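Hit when the log firefly-to-Renilla ratio dropped or increased by a fixed fold versus the mean of GFP or LacZ controls across duplicate plates; lowering cut given as 1.5 and as 3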. Meaning of the calls: active = hit: reporter lowered or raised; inactive = no hit.
In all, the deposit lists about 24,000 reagents; this is a random part of those with a known target gene and a result. In the full data, 246 (1%) are marked active. 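Plates not normalised; calls are printed but the firefly/Renilla ratio behind them is not deposited; fold cut for lowering reported inconsistently.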 Raw values are not corrected between plates. A plus sign joins genes that one reagent is predicted to hit. Reagent sequences are not shown. The record does not give: the amount of reagent.

For CG4476 [SID104190216], the values are firefly reporter light, replicate 1 = 1.79e5; firefly reporter light, replicate 2 = 1.68e5; Renilla control light, replicate 1 = 1.75e6; Renilla control light, replicate 2 = 1.37e6; inactive.
Against CG4476 [SID104203908], the values are firefly reporter light, replicate 1 = 7.11e5; firefly reporter light, replicate 2 = 1.12e6; Renilla control light, replicate 1 = 1.07e6; Renilla control light, replicate 2 = 1.16e6; inactive.
With knock-down of CG6310 [SID104190411], the record shows firefly reporter light, replicate 1 = 2.67e5; firefly reporter light, replicate 2 = 2.65e5; Renilla control light, replicate 1 = 3.67e6; Renilla control light, replicate 2 = 2.55e6; inactive.
Silencing of CG16984 [SID104188292] came out at: firefly reporter light, replicate 1 = 1.24e5; firefly reporter light, replicate 2 = 1.33e5; Renilla control light, replicate 1 = 1.71e6; Renilla control light, replicate 2 = 1.67e6; inactive.
CG16984 [SID104207149] showed firefly reporter light, replicate 1 = 3.04e5; firefly reporter light, replicate 2 = 3.08e5; Renilla control light, replicate 1 = 1.05e6; Renilla control light, replicate 2 = 1.09e6; inactive.
Silencing of CR43087 + CR43086 + CG34002 [SID104191745] came out at: firefly reporter light, replicate 1 = 1.12e6; firefly reporter light, replicate 2 = 9.27e5; Renilla control light, replicate 1 = 9.26e5; Renilla control light, replicate 2 = 7.97e5; inactive.
Pkg21D [SID104180564] scored firefly reporter light, replicate 1 = 8.40e5; firefly reporter light, replicate 2 = 1.27e6; Renilla control light, replicate 1 = 1.42e6; Renilla control light, replicate 2 = 1.54e6; inactive.
Depletion of Pkg21D [SID104207636] came out at: firefly reporter light, replicate 1 = 4.09e5; firefly reporter light, replicate 2 = 4.00e5; Renilla control light, replicate 1 = 1.08e6; Renilla control light, replicate 2 = 8.89e5; inactive.
Against Pkg21D [SID104214177] the deposit lists inactive.
Depletion of His3:CG33818 + His3:CG33857 + His3:CG33806 + 20 more [SID104201059] gave: firefly reporter light, replicate 1 = 1.44e5; firefly reporter light, replicate 2 = 1.67e5; Renilla control light, replicate 1 = 18333; Renilla control light, replicate 2 = 10207; inactive.
With knock-down of Cdc7 [SID104198221], the screen gave firefly reporter light, replicate 1 = 1.45e5; firefly reporter light, replicate 2 = 1.97e5; Renilla control light, replicate 1 = 2.28e6; Renilla control light, replicate 2 = 2.80e6; active.
Cdc7 [SID104206363] showed firefly reporter light, replicate 1 = 2.14e5; firefly reporter light, replicate 2 = 1.69e5; Renilla control light, replicate 1 = 4.70e5; Renilla control light, replicate 2 = 5.83e5; inactive.
tei [SID104187408] scored firefly reporter light, replicate 1 = 52007; firefly reporter light, replicate 2 = 52904; Renilla control light, replicate 1 = 1.25e6; Renilla control light, replicate 2 = 1.25e6; inactive.
For tei [SID104202874] the deposit lists firefly reporter light, replicate 1 = 6.74e5; firefly reporter light, replicate 2 = 3.94e5; Renilla control light, replicate 1 = 4.23e5; Renilla control light, replicate 2 = 4.54e5; inactive.

Records listed so far marked active (1):
Cdc7 [SID104198221] → firefly reporter light, replicate 1: 1.45e5; firefly reporter light, replicate 2: 1.97e5; Renilla control light, replicate 1: 2.28e6; Renilla control light, replicate 2: 2.80e6; Outcome: active
